The text below walks through data of paper PMC10586200.

No constants are given. Whether binding was seen depends on the method and setting. Binding seen in cells or lysates may run through a third protein. Some binding calls cover weakened binding; strength is not graded here. Where a sequence is shown, tags or fusion partners need not be part of it.

This test addresses T1, Strep-FLAG-tagged full-length IFT74 (human) (UniProt Q96LB3).
T1 sequence: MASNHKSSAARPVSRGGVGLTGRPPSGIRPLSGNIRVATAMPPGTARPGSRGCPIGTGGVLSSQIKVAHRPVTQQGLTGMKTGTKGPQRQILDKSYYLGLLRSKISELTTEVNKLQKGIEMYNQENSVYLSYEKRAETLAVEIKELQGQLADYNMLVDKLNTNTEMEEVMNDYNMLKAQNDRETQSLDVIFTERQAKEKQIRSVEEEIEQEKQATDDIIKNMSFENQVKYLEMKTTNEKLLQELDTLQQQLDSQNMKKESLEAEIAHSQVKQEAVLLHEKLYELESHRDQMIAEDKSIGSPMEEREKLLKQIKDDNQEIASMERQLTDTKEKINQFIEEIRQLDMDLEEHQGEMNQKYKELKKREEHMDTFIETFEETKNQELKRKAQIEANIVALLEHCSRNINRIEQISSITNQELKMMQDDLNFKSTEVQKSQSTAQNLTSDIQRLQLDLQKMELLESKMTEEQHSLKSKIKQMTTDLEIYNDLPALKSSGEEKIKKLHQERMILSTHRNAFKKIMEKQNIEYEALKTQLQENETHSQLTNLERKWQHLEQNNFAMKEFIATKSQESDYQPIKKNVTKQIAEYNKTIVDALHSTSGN
The test is described as follows: co-IP; anti-FLAG affinity purification of Strep-FLAG-tagged IFT74 constructs from transfected HEK293 cells, western blotting for IFT81, IFT88 and IFT46; done six times. A general note: In western blotting, separated proteins are transferred to a membrane and probed.

B1: IFT81 (protein, UniProt Q8WYA0 1-676)
chain: MSDQIKFIMDSLNKEPFRKNYNLITFDSLEPMQLLQVLSDVLAEIDPKQLVDIREEMPEQTAKRMLSLLGILKYKPSGNATDMSTFRQGLVIGSKPVIYPVLHWLLQRTNELKKRAYLARFLIKLEVPSEFLQDETVADTNKQYEELMEAFKTLHKEYEQLKISGFSTAEIRKDISAMEEEKDQLIKRVEHLKKRVETAQNHQWMLKIARQLRVEKEREEYLAQQKQEQKNQLFHAVQRLQRVQNQLKSMRQAAADAKPESLMKRLEEEIKFNLYMVTEKFPKELENKKKELHFLQKVVSEPAMGHSDLLELESKINEINTEINQLIEKKMMRNEPIEGKLSLYRQQASIISRKKEAKAEELQEAKEKLASLEREASVKRNQTREFDGTEVLKGDEFKRYVNKLRSKSTVFKKKHQIIAELKAEFGLLQRTEELLKQRHENIQQQLQTMEEKKGISGYSYTQEELERVSALKSEVDEMKGRTLDDMSEMVKKLYSLVSEKKSALASVIKELRQLRQKYQELTQECDEKKSQYDSCAAGLESNRSKLEQEVRRLREECLQEESRYHYTNCMIKNLEVQLRRATDEMKAYISSDQQEKRKAIREQYTKNTAEQENLGKKLREKQKVIRESHGPNMKQAKMWRDLEQLMECKKQCFLKQQSQTSIGQVIQEGGEDRLIL
Consider B1, for which the binding entry is listed as “binds”.

B2: IFT88 (protein, UniProt Q13099 1-824)
chain: MMQNVHLAPETDEDDLYSGYNDYNPIYDIEELENDAAFQQAVRTSHGRRPPITAKISSTAVTRPIATGYGSKTSLASSIGRPMTGAIQDGVTRPMTAVRAAGFTKAALRGSAFDPLSQSRGPASPLEAKKKDSPEEKIKQLEKEVNELVEESCIANSCGDLKLALEKAKDAGRKERVLVRQREQVTTPENINLDLTYSVLFNLASQYSVNEMYAEALNTYQVIVKNKMFSNAGILKMNMGNIYLKQRNYSKAIKFYRMALDQVPSVNKQMRIKIMQNIGVTFIQAGQYSDAINSYEHIMSMAPNLKAGYNLTICYFAIGDREKMKKAFQKLITVPLEIDEDKYISPSDDPHTNLVTEAIKNDHLRQMERERKAMAEKYIMTSAKLIAPVIETSFAAGYDWCVEVVKASQYVELANDLEINKAVTYLRQKDYNQAVEILKVLEKKDSRVKSAAATNLSALYYMGKDFAQASSYADIAVNSDRYNPAALTNKGNTVFANGDYEKAAEFYKEALRNDSSCTEALYNIGLTYEKLNRLDEALDCFLKLHAILRNSAEVLYQIANIYELMENPSQAIEWLMQVVSVIPTDPQVLSKLGELYDREGDKSQAFQYYYESYRYFPCNIEVIEWLGAYYIDTQFWEKAIQYFERASLIQPTQVKWQLMVASCFRRSGNYQKALDTYKDTHRKFPENVECLRFLVRLCTDLGLKDAQEYARKLKRLEKMKEIREQRIKSGRDGSGGSRGKREGSASGDSGQNYSASSKGERLSARLRALPGTNEPYESSSNKEIDASYVDPLGPQIERPKTAAKKRIDEDDFADEELGDDLLPE
Turning to B2, the binding result was “binds”.

B3: IFT46 (protein, UniProt Q9NQC8 1-304)
chain: MADNSSDECEEENNKEKKKTSQLTPQRGFSENEDDDDDDDDSSETDSDSDDDDEEHGAPLEGAYDPADYEHLPVSAEIKELFQYISRYTPQLIDLDHKLKPFIPDFIPAVGDIDAFLKVPRPDGKPDNLGLLVLDEPSTKQSDPTVLSLWLTENSKQHNITQHMKVKSLEDAEKNPKAIDTWIESISELHRSKPPATVHYTRPMPDIDTLMQEWSPEFEELLGKVSLPTAEIDCSLAEYIDMICAILDIPVYKSRIQSLHLLFSLYSEFKNSQHFKALAEGKKAFTPSSNSTSQAGDMETLTFS
As for B3, the binding result is recorded as “binds”.
